Where “and” joins values, the source holds several entries; their conditions need not be identical. Identical values can stand only once. Counter-ions that a name gives are not always drawn. ± gives the standard deviation of the averaged measurements. Some of the results follow. Most values come without repeats; read them as rough.
Test system: RAW 264.7
Experiment: cell viability (MTT) relative to vehicle control; higher = more viable cells
Details: stimulus: HMGB1 5 ug/ml, 18 h
[1] = compound concentration: 1 ug/ml

SMILES: NC(=O)NC(=O)Cc1ccccc1
- cell viability (compound concentration: 3 uM): 112%

SMILES: CC1CS(=O)(=O)CCN1/N=C/c1ccc([N+](=O)[O-])o1 (stereo unspecified) [Nifurtimox]
- cell viability (compound concentration: 3 uM): 73.6%

SMILES: Cc1ncc([N+](=O)[O-])n1CC(O)CCl (stereo unspecified)
- cell viability (compound concentration: 3 uM): 98.8 ± 1.4%

SMILES: Cc1ncc([N+](=O)[O-])n1CC(O)CCl (stereo unspecified) [Ornidazole]
- cell viability (compound concentration: 3 uM): 100%

SMILES: Cc1cc2c(c(O)c1-c1c(C)cc3c(c1O)C(=O)C(O)C3C(C)C)C(=O)C(O)C2C(C)C (stereo unspecified)
- cell viability [1]: 97.3%

SMILES: CN1C(C(=O)Nc2ccccn2)=C(O)c2sccc2S1(=O)=O [Tenoxicam]
- cell viability (compound concentration: 3 uM): 82.45 ± 0.17%

SMILES: CN1C(C(=O)Nc2ccccn2)=C(O)c2sccc2S1(=O)=O
- cell viability (compound concentration: 3 uM): 104%

SMILES: CN(C)c1ccc2nc3ccc(=[N+](C)C)cc-3sc2c1
- cell viability (compound concentration: 3 uM): 105%

SMILES: COc1cc(/C=C/C(=O)N2CCC=CC2=O)cc(OC)c1OC
- cell viability [1]: 93.6%

SMILES: COc1ccc(C2C(=O)c3ccccc3C2=O)cc1
- cell viability (compound concentration: 3 uM): 109%

SMILES: Cc1cccc(C)c1NC(=O)C1CCCCN1C (stereo unspecified)
- cell viability (compound concentration: 3 uM): 107 ± 9.3%

SMILES: Cc1cccc(C)c1NC(=O)C1CCCCN1C (stereo unspecified) [Mepivacaine hydrochloride]
- cell viability (compound concentration: 3 uM): 92.8%

SMILES: C=C[C@H]1CN2CC[C@H]1C[C@@H]2[C@@H](O)c1ccnc2ccc(OC)cc12 [Quinidine hydrochloride monohydrate]
- cell viability (compound concentration: 3 uM): 105%

SMILES: C=C[C@H]1CN2CC[C@H]1C[C@@H]2[C@@H](O)c1ccnc2ccc(OC)cc12 [Quinidine sulfate]
- cell viability (compound concentration: 3 uM): 96.5%

SMILES: C=C[C@H]1CN2CC[C@H]1C[C@@H]2[C@@H](O)c1ccnc2ccc(OC)cc12
- cell viability (compound concentration: 3 uM): 101%

SMILES: CNC(=O)[C@H]1O[C@@H](n2cnc3c(NCc4cccc(I)c4)ncnc32)[C@H](O)[C@@H]1O
- cell viability (compound concentration: 3 uM): 94%

SMILES: Cc1c(C(N)=O)cc([N+](=O)[O-])cc1[N+](=O)[O-]
- cell viability (compound concentration: 3 uM): 104%

SMILES: N=C(N)N
- cell viability (compound concentration: 3 uM): 113%

SMILES: O=C1CCC(N2C(=O)c3ccccc3C2=O)C(=O)N1 (racemic) [(±)-Thalidomide]
- cell viability (compound concentration: 3 uM): 115%

SMILES: C[C@]12C=CC(=O)C=C1CC[C@@H]1[C@@H]2[C@@H](O)C[C@@]2(C)[C@H]1CC[C@]2(O)C(=O)COP(=O)(O)O
- cell viability (compound concentration: 3 uM): 121%

SMILES: C[C@]12CC[C@H]3C(=CCc4cc(O)ccc43)[C@@H]1CCC2=O [Equilin]
- cell viability [1]: 109%
- cell viability (compound concentration: 3 uM): 92.4%

SMILES: C[C@]12CC[C@H]3C(=CCc4cc(O)ccc43)[C@@H]1CCC2=O
- cell viability (compound concentration: 3 uM): 110%

SMILES: O=P(O)(O)C(Sc1ccc(Cl)cc1)P(=O)(O)O [Tiludronate disodium]
- cell viability (compound concentration: 3 uM): 112%

SMILES: Cc1[nH]c(=O)c(C#N)cc1-c1ccncc1 [Milrinone]
- cell viability (compound concentration: 3 uM): 102 ± 10%

SMILES: Cc1[nH]c(=O)c(C#N)cc1-c1ccncc1
- cell viability (compound concentration: 3 uM): 94.1%

SMILES: Cc1ccnc2c1NC(=O)c1cccnc1N2C1CC1 [Viramune]
- cell viability (compound concentration: 3 uM): 95.3%

SMILES: CN(C)CCC=C1c2ccccc2CCc2ccccc21
- cell viability (compound concentration: 3 uM): 108%

SMILES: CN(C)CCC=C1c2ccccc2CCc2ccccc21 [Amitriptyline hydrochloride]
- cell viability (compound concentration: 3 uM): 107%

SMILES: CN(C)CCC=C1c2ccccc2CCc2ccccc21 [Amitryptiline hydrochloride]
- cell viability (compound concentration: 3 uM): 89.5%

SMILES: Cn1c(=O)c2[nH]cnc2n(C)c1=O [Aminophylline]
- cell viability (compound concentration: 3 uM): 111 ± 13%

SMILES: Cn1c(=O)c2[nH]cnc2n(C)c1=O [Aminophylline ethylenediamine]
- cell viability (compound concentration: 3 uM): 106%

SMILES: CS(=O)(=O)c1ccc(C2=C(c3ccccc3)C(=O)OC2)cc1 [Rofecoxib]
- cell viability (compound concentration: 3 uM): 98.9 ± 5.3%

SMILES: CS(=O)(=O)c1ccc(C2=C(c3ccccc3)C(=O)OC2)cc1
- cell viability (compound concentration: 3 uM): 106 ± 10%

SMILES: C=C1C(=O)[C@]23[C@H](CC[C@@H]1[C@@H]2O)[C@]12CO[C@@]3(O)[C@H](O)[C@H]1C(C)(C)CC[C@@H]2O
- cell viability (compound concentration: 3 uM): 93.1%

SMILES: O=C(Nc1ccccc1)c1ccccc1O
- cell viability (compound concentration: 3 uM): 104%

SMILES: CCOc1ccc2oc(=O)c(-c3ccc(O)cc3)c(C)c2c1 [6-Ethoxy-3(4'-hydroxyphenyl)-4-methylcoumarin]
- cell viability [1]: 118%

SMILES: O=c1cccc2n1CC1CC2CN(CC(O)C=Nc2c3ccccc3nc3ccccc23)C1 (stereo unspecified)
- cell viability [1]: 89.1%

SMILES: CN(C)c1cc2c(Nc3ccc4c(cnn4Cc4ccccc4)c3)ncnc2cn1
- cell viability (compound concentration: 3 uM): 102%

SMILES: CCN(CC)CCOC(=O)C(c1ccccc1)C1CCCCC1 (stereo unspecified) [Drofenine hydrochloride]
- cell viability (compound concentration: 3 uM): 117%

SMILES: CCN(CC)CCOC(=O)C(c1ccccc1)C1CCCCC1 (stereo unspecified)
- cell viability (compound concentration: 3 uM): 113%

SMILES: COc1cc(-c2oc3ccccc3c(=O)c2O)cc(OC)c1OC [3-Hydroxy-3',4',5'-trimethoxyflavone]
- cell viability [1]: 99.9%

SMILES: COCC1=C(C(=O)OC(C)OC(=O)OC(C)C)N2C(=O)[C@@H](NC(=O)/C(=N\OC)c3csc(N)n3)[C@H]2SC1 (stereo partly specified)
- cell viability (compound concentration: 3 uM): 103 ± 3.8%

SMILES: OC[C@H]1O[C@@H](Oc2ccc3ccccc3c2)[C@H](O)[C@@H](O)[C@H]1O [2-Naphthyl-beta-D-galactopyranoside]
- cell viability [1]: 104%

SMILES: C=C1C[C@@]23CC[C@H]4[C@@](C)(CCC[C@@]4(C)C(=O)O[C@@H]4O[C@H](CO)[C@@H](O)[C@H](O)[C@H]4O)[C@@H]2CC[C@]1(O[C@@H]1O[C@H](CO)[C@@H](O)[C@H](O)[C@H]1O[C@@H]1O[C@H](CO)[C@@H](O)[C@H](O)[C@H]1O)C3 [Stevioside]
- cell viability (compound concentration: 3 uM): 92.5%

SMILES: CC(C)(C)OC(=O)c1cc2cc3c4c(c2oc1=O)CCCN4CCC3 [Coumarin 338]
- cell viability [1]: 91%

SMILES: COc1cc(Cc2cnc(N)nc2N)cc(OC)c1OC [Trimethoprim]
- cell viability (compound concentration: 3 uM): 108 ± 9.4%

SMILES: COc1cc(Cc2cnc(N)nc2N)cc(OC)c1OC
- cell viability (compound concentration: 3 uM): 109%

SMILES: NC(=O)C(=O)O [Sodium Oxamate]
- cell viability (compound concentration: 3 uM): 103%

SMILES: CO[C@@]1(NC(=O)Cc2cccs2)C(=O)N2C(C(=O)O)=C(COC(N)=O)CS[C@@H]21
- cell viability (compound concentration: 3 uM): 107%

SMILES: CO[C@@]1(NC(=O)Cc2cccs2)C(=O)N2C(C(=O)O)=C(COC(N)=O)CS[C@@H]21 [Cefoxitin sodium salt]
- cell viability (compound concentration: 3 uM): 74.6%

SMILES: CC(=O)c1ccc2c(c1)N(CCCN1CCC(CCO)CC1)c1ccccc1S2 [Piperacetazine]
- cell viability (compound concentration: 3 uM): 92.5%

SMILES: CCc1cc(=O)oc2cc(OC)c(OC)cc12 [6,7-Dimethoxy-4-ethylcoumarin]
- cell viability [1]: 94.7%

SMILES: CC1CCC(C(C)C)C(O)C1 (stereo unspecified)
- cell viability (compound concentration: 3 uM): 103%

SMILES: CNCC[C@H](Oc1cccc2ccccc12)c1cccs1
- cell viability (compound concentration: 3 uM): 106% and 93%

SMILES: CNCC[C@H](Oc1cccc2ccccc12)c1cccs1 [Duloxetine]
- cell viability (compound concentration: 3 uM): 91.8%

SMILES: O=C(CCCN1CCC(O)(c2ccc(Br)cc2)CC1)c1ccc(F)cc1
- cell viability (compound concentration: 3 uM): 84.6%

SMILES: O=C(CCCN1CCC(O)(c2ccc(Br)cc2)CC1)c1ccc(F)cc1 [Bromperidol]
- cell viability (compound concentration: 3 uM): 85.4%

SMILES: COc1cc2c(cc1OC)C(=O)C(CC1CCN(Cc3ccccc3)CC1)C2 (stereo unspecified) [Donepezil]
- cell viability (compound concentration: 3 uM): 98.3%

SMILES: COc1cc2c(cc1OC)C(=O)C(CC1CCN(Cc3ccccc3)CC1)C2 (stereo unspecified)
- cell viability (compound concentration: 3 uM): 102%

SMILES: CCCCC(CC)CN1CN(CC(CC)CCCC)CC(C)(N)C1 (stereo unspecified) [Hexetidine]
- cell viability (compound concentration: 3 uM): 92.5%

SMILES: CCCCC(CC)CN1CN(CC(CC)CCCC)CC(C)(N)C1 (stereo unspecified)
- cell viability (compound concentration: 3 uM): 106%

SMILES: NC(N)=NCc1cccc(I)c1 [m-Iodobenzylguanidine hemisulfate]
- cell viability (compound concentration: 3 uM): 111%

SMILES: NS(=O)(=O)c1cccc2c1c([N+](=O)[O-])cc1nc(O)c(O)nc12 [NBQX disodium]
- cell viability (compound concentration: 3 uM): 101%

SMILES: N#CC(=C(/N)Sc1ccccc1N)/C(C#N)=C(/N)Sc1ccccc1N
- cell viability (compound concentration: 3 uM): 91.6%

SMILES: CC(C)(C)C(=O)OCOC(=O)[C@@H]1N2C(=O)[C@@H](NC(=O)[C@H](N)c3ccccc3)[C@H]2SC1(C)C [Pivampicillin]
- cell viability (compound concentration: 3 uM): 110%

SMILES: O=C1NCN(c2ccccc2)C12CCN(CCCC(c1ccc(F)cc1)c1ccc(F)cc1)CC2 [Fluspirilen]
- cell viability (compound concentration: 3 uM): 108%

SMILES: O=C1NCN(c2ccccc2)C12CCN(CCCC(c1ccc(F)cc1)c1ccc(F)cc1)CC2 [Fluspirilene]
- cell viability (compound concentration: 3 uM): 111 ± 9.2%

SMILES: COc1cccc(OC)c1OCCNCC1COc2ccccc2O1 (stereo unspecified) [WB-4101 hydrochloride]
- cell viability (compound concentration: 3 uM): 112%

SMILES: CC(C)NCC(O)c1ccc(NS(C)(=O)=O)cc1 (racemic) [(±)-Sotalol hydrochloride]
- cell viability (compound concentration: 3 uM): 116%

SMILES: O=C(O)CCC(=O)N1CCC[C@H]1C(=O)O [N-Succinyl-L-proline]
- cell viability (compound concentration: 3 uM): 116%

SMILES: N=C(N)NC(=O)c1nc(Cl)c(N)nc1N [Amiloride hydrochloride dihydrate]
- cell viability (compound concentration: 3 uM): 108%

SMILES: N=C(N)NC(=O)c1nc(Cl)c(N)nc1N [Amiloride hydrochloride]
- cell viability (compound concentration: 3 uM): 112%

SMILES: N=C(N)NC(=O)c1nc(Cl)c(N)nc1N
- cell viability (compound concentration: 3 uM): 108%

SMILES: N=C(N)NC(=O)c1nc(Cl)c(N)nc1N [Amiloride]
- cell viability (compound concentration: 3 uM): 94.2%

SMILES: O=[N+]([O-])c1cccc2c(Br)[nH]nc12 [3-Bromo-7-nitroindazole]
- cell viability (compound concentration: 3 uM): 109%

SMILES: O=C(Nc1ccc(C(=O)O)c(O)c1)c1ccccc1
- cell viability (compound concentration: 3 uM): 92.5%

SMILES: CCCCOC(=O)c1ccc(N)cc1 [Butamben]
- cell viability (compound concentration: 3 uM): 129%

SMILES: CCCCOC(=O)c1ccc(N)cc1
- cell viability (compound concentration: 3 uM): 103%

SMILES: O=C1c2cc(CO)cc(O)c2C(=O)c2c(OC3OC(CO)C(O)C(O)C3O)cccc21 (stereo unspecified) [Aloe-Emodin-8-O-glycoside]
- cell viability [1]: 100%

SMILES: CC(C)COC(=O)OCN1C(=O)CN(CCN2CC(=O)N(COC(=O)OCC(C)C)C(=O)C2)CC1=O [Sobuzoxane]
- cell viability (compound concentration: 3 uM): 118%

SMILES: CCCCC1=NC2(CCCC2)C(=O)N1Cc1ccc(-c2ccccc2-c2nnn[nH]2)cc1
- cell viability (compound concentration: 3 uM): 101 ± 3.8%

SMILES: O=C(Nc1nc2ccccc2n1CCN1CCOCC1)c1cccc([N+](=O)[O-])c1 [IRAK-1/4 Inhibitor I]
- cell viability (compound concentration: 3 uM): 127%

SMILES: CC(=O)SCC[N+](C)(C)C [Acetylthiocholine chloride]
- cell viability (compound concentration: 3 uM): 97.8%

SMILES: CC[C@H]1OC(=O)[C@H](C)[C@@H](O[C@H]2C[C@@](C)(OC)[C@@H](O)[C@H](C)O2)[C@H](C)[C@@H](O[C@@H]2O[C@H](C)C[C@H](N(C)C)[C@H]2O)[C@](C)(OC)C[C@@H](C)C(=O)[C@H](C)[C@@H](O)[C@]1(C)O
- cell viability (compound concentration: 3 uM): 106 ± 5.6%

SMILES: CC[C@H]1OC(=O)[C@H](C)[C@@H](O[C@H]2C[C@@](C)(OC)[C@@H](O)[C@H](C)O2)[C@H](C)[C@@H](O[C@@H]2O[C@H](C)C[C@H](N(C)C)[C@H]2O)[C@](C)(OC)C[C@@H](C)C(=O)[C@H](C)[C@@H](O)[C@]1(C)O [Clarithromycin]
- cell viability (compound concentration: 3 uM): 103 ± 4.9%

From the supplement of paper PMC3682954
